# Data from the supplement of paper PMC8728848.
# The other results are listed elsewhere or left out.
# What was measured:
# Experiment in all cases: glycan array binding signal (z-score within array); higher = stronger binding
# Details in all cases: glycan notation: IUPAC condensed, linker removed
# [1] = target: Fuc(a1-3)[Gal3S(b1-4)]GlcNAc6S
# Method in brief: (§1)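 Arrays were curated from the Consortium for Functional Glycomics database, 3228 in total, and kept only where the protein sequence was available. Binding is expressed as a within-array Z-score. This score was averaged across arrays of the same protein sequence at different concentrations or buffers and across linkers, and negative values can be read as non-binding.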
# [2] = target: Fuc(a1-3)[GalNAc(b1-4)]GlcNAc
# Method in brief: as §1
# [3] = target: Fuc(a1-3)[GalNAc(b1-4)]GlcNAc6S
# Method in brief: as §1
# Fuc(a1-4)GlcNAc = target: Fuc(a1-4)GlcNAc
# Method in brief: as §1
# Fuc(b1-3)GlcNAc = target: Fuc(b1-3)GlcNAc
# Method in brief: as §1
# Gal(a1-2)Gal = target: Gal(a1-2)Gal
# Method in brief: as §1
# Gal(a1-3)Gal = target: Gal(a1-3)Gal
# Method in brief: as §1
# Gal(a1-3)Gal(b1-3)GlcNAc = target: Gal(a1-3)Gal(b1-3)GlcNAc
# Method in brief: as §1
# [4] = target: Gal(a1-3)Gal(b1-3)GlcNAc(b1-2)Man
# Method in brief: as §1
# [5] = target: Gal(a1-3)Gal(b1-3)GlcNAc(b1-2)Man(a1-3)[Gal(a1-3)Gal(b1-3)GlcNAc(b1-2)Man(a1-6)]Man(b1-4)GlcNAc(b1-4)GlcNAc
# Method in brief: as §1
# [6] = target: Gal(a1-3)Gal(b1-3)GlcNAc(b1-3)GalNAc
# Method in brief: as §1
# [7] = target: Gal(a1-3)Gal(b1-3)GlcNAc(b1-6)GalNAc
# Method in brief: as §1
# [8] = target: Gal(a1-3)Gal(b1-3)[Fuc(a1-4)]GlcNAc(b1-2)Man(a1-3)[Gal(a1-3)Gal(b1-3)[Fuc(a1-4)]GlcNAc(b1-2)Man(a1-6)]Man(b1-4)GlcNAc(b1-4)GlcNAc
# Method in brief: as §1
# Gal(a1-3)Gal(b1-4)Glc = target: Gal(a1-3)Gal(b1-4)Glc
# Method in brief: as §1
# Gal(a1-3)Gal(b1-4)GlcNAc = target: Gal(a1-3)Gal(b1-4)GlcNAc
# Method in brief: as §1
# [9] = target: Gal(a1-3)Gal(b1-4)GlcNAc(b1-2)Man
# Method in brief: as §1
# [10] = target: Gal(a1-3)Gal(b1-4)GlcNAc(b1-2)Man(a1-3)[Gal(a1-3)Gal(b1-4)GlcNAc(b1-2)Man(a1-6)]Man(b1-4)GlcNAc(b1-4)GlcNAc
# Method in brief: as §1
# [11] = target: Gal(a1-3)Gal(b1-4)GlcNAc(b1-3)GalNAc
# Method in brief: as §1
# [12] = target: Gal(a1-3)Gal(b1-4)GlcNAc(b1-6)GalNAc
# Method in brief: as §1
# [13] = target: Gal(a1-3)Gal(b1-4)[Fuc(a1-3)]GlcNAc
# Method in brief: as §1
# [14] = target: Gal(a1-3)Gal(b1-4)[Fuc(a1-3)]GlcNAc(b1-2)Man(a1-3)[Gal(a1-3)Gal(b1-4)[Fuc(a1-3)]GlcNAc(b1-2)Man(a1-6)]Man(b1-4)GlcNAc(b1-4)GlcNAc
# Method in brief: as §1
# Gal(a1-3)GalNAc = target: Gal(a1-3)GalNAc
# Method in brief: as §1
# [15] = target: Gal(a1-3)[Gal(a1-4)]Gal(b1-4)GlcNAc
# Method in brief: as §1
# [16] = target: Gal(a1-4)Gal(b1-3)GlcNAc(b1-2)Man(a1-3)[Gal(a1-4)Gal(b1-3)GlcNAc(b1-2)Man(a1-6)]Man(b1-4)GlcNAc(b1-4)GlcNAc
# Method in brief: as §1
# Gal(a1-4)Gal(b1-4)Glc = target: Gal(a1-4)Gal(b1-4)Glc
# Method in brief: as §1
# Gal(a1-4)Gal(b1-4)GlcNAc = target: Gal(a1-4)Gal(b1-4)GlcNAc
# Method in brief: as §1
# [17] = target: Gal(a1-4)Gal(b1-4)GlcNAc(b1-2)Man(a1-3)[Gal(a1-4)Gal(b1-4)GlcNAc(b1-2)Man(a1-6)]Man(b1-4)GlcNAc(b1-4)GlcNAc
# Method in brief: as §1
# [18] = target: Gal(a1-4)Gal(b1-4)GlcNAc(b1-3)Gal(b1-4)Glc
# Method in brief: as §1
# Gal(a1-4)GlcNAc = target: Gal(a1-4)GlcNAc
# Method in brief: as §1
# Gal(a1-6)Glc = target: Gal(a1-6)Glc
# Method in brief: as §1
# Gal(b1-2)Gal = target: Gal(b1-2)Gal
# Method in brief: as §1
# Gal(b1-3)Gal = target: Gal(b1-3)Gal
# Method in brief: as §1
# Gal(b1-3)Gal(b1-4)GlcNAc = target: Gal(b1-3)Gal(b1-4)GlcNAc
# Method in brief: as §1
# Gal(b1-3)GalNAc = target: Gal(b1-3)GalNAc
# Method in brief: as §1
# [19] = target: Gal(b1-3)GalNAc(a1-3)[Fuc(a1-2)]Gal(b1-4)Glc
# Method in brief: as §1
# [20] = target: Gal(b1-3)GalNAc(a1-3)[Fuc(a1-2)]Gal(b1-4)GlcNAc
# Method in brief: as §1
# Gal(b1-3)GalNAc(b1-3)Gal = target: Gal(b1-3)GalNAc(b1-3)Gal
# Method in brief: as §1
# [21] = target: Gal(b1-3)GalNAc(b1-3)Gal(a1-4)Gal(b1-4)Glc
# Method in brief: as §1
# [22] = target: Gal(b1-3)GalNAc(b1-4)Gal(b1-4)Glc
# Method in brief: as §1
# [23] = target: Gal(b1-3)GalNAc(b1-4)[Neu5Ac(a2-3)]Gal(b1-4)Glc
# Method in brief: as §1
# Gal(b1-3)GlcNAc = target: Gal(b1-3)GlcNAc
# Method in brief: as §1
# [24] = target: Gal(b1-3)GlcNAc(a1-3)Gal(b1-4)GlcNAc
# Method in brief: as §1
# [25] = target: Gal(b1-3)GlcNAc(a1-6)Gal(b1-4)GlcNAc
# Method in brief: as §1
# Gal(b1-3)GlcNAc(b1-2)Man = target: Gal(b1-3)GlcNAc(b1-2)Man
# Method in brief: as §1
# [26] = target: Gal(b1-3)GlcNAc(b1-2)Man(a1-3)[Gal(b1-3)GlcNAc(b1-2)Man(a1-6)]Man(b1-4)GlcNAc(b1-4)GlcNAc
# Method in brief: as §1
binder,measurement,setting,value
Clec18A (Homo sapiens) (protein) PFHTCDLRIDGDCFMVSSEADTYYRARMKCQRKGGVLAQIKRQKVQDILAFYLGRLETTNEVIDSDFETRNFWIGLTYKTAKDSFRWATGEHQAFTSFAFGQPDNHGFGNCVELQASAAFNWNDQRCKTRNRYICQ,glycan array binding signal (z-score),[1],0.231
same,glycan array binding signal (z-score),[2],0.38
same,glycan array binding signal (z-score),[3],1.94
same,glycan array binding signal (z-score),Fuc(a1-4)GlcNAc,-0.682
same,glycan array binding signal (z-score),Fuc(b1-3)GlcNAc,-0.657
same,glycan array binding signal (z-score),Gal(a1-2)Gal,-0.514
same,glycan array binding signal (z-score),Gal(a1-3)Gal,0.795
same,glycan array binding signal (z-score),Gal(a1-3)Gal(b1-3)GlcNAc,2.38
same,glycan array binding signal (z-score),[4],1.51
same,glycan array binding signal (z-score),[5],0.649
same,glycan array binding signal (z-score),[6],-0.324
same,glycan array binding signal (z-score),[7],0.272
same,glycan array binding signal (z-score),[8],2.1
same,glycan array binding signal (z-score),Gal(a1-3)Gal(b1-4)Glc,0.259
same,glycan array binding signal (z-score),Gal(a1-3)Gal(b1-4)GlcNAc,-0.505
same,glycan array binding signal (z-score),[9],-0.466
same,glycan array binding signal (z-score),[10],0.582
same,glycan array binding signal (z-score),[11],0.774
same,glycan array binding signal (z-score),[12],-0.483
same,glycan array binding signal (z-score),[13],1.37
same,glycan array binding signal (z-score),[14],0.838
same,glycan array binding signal (z-score),Gal(a1-3)GalNAc,-0.489
same,glycan array binding signal (z-score),[15],2.29
same,glycan array binding signal (z-score),[16],1.19
same,glycan array binding signal (z-score),Gal(a1-4)Gal(b1-4)Glc,0.47
same,glycan array binding signal (z-score),Gal(a1-4)Gal(b1-4)GlcNAc,-0.513
same,glycan array binding signal (z-score),[17],-0.294
same,glycan array binding signal (z-score),[18],2.17
same,glycan array binding signal (z-score),Gal(a1-4)GlcNAc,-0.546
same,glycan array binding signal (z-score),Gal(a1-6)Glc,-0.659
same,glycan array binding signal (z-score),Gal(b1-2)Gal,-0.826
same,glycan array binding signal (z-score),Gal(b1-3)Gal,-0.801
same,glycan array binding signal (z-score),Gal(b1-3)Gal(b1-4)GlcNAc,-0.255
same,glycan array binding signal (z-score),Gal(b1-3)GalNAc,-0.497
same,glycan array binding signal (z-score),[19],-0.687
same,glycan array binding signal (z-score),[20],0.394
same,glycan array binding signal (z-score),Gal(b1-3)GalNAc(b1-3)Gal,-0.158
same,glycan array binding signal (z-score),[21],-0.059
same,glycan array binding signal (z-score),[22],1.14
same,glycan array binding signal (z-score),[23],0.583
same,glycan array binding signal (z-score),Gal(b1-3)GlcNAc,-0.262
same,glycan array binding signal (z-score),[24],1.46
same,glycan array binding signal (z-score),[25],1.4
same,glycan array binding signal (z-score),Gal(b1-3)GlcNAc(b1-2)Man,-0.886
same,glycan array binding signal (z-score),[26],0.56
